{
  "sequences": {"note": "By UniProt entry, the sequences of proteins in these tests, tags left out. Where a name states a change or a piece, a line headed by the entry shows the natural chain unless it says otherwise.", "UniProt P48431": "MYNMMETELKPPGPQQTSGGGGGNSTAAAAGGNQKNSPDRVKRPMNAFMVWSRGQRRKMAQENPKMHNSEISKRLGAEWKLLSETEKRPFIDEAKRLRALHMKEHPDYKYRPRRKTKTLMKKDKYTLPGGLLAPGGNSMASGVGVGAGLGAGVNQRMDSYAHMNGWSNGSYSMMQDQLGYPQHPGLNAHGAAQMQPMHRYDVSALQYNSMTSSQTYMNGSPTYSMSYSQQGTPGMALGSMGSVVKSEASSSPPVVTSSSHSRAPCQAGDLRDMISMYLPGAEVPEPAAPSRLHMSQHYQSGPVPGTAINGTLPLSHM"},
  "source": "paper PMC9271091",
  "target": "Sox2-FL (Homo sapiens) (UniProt P48431)",
  "assay": "EMSA",
  "conditions": "10 nM DNA; room temperature, 30 min; 5% native PAGE, 0.5x TBE, 4 °C; recombinant protein; residues 1-317; label: none (SYBR Gold stain)",
  "note": "The exact form of at least one protein or probe is not confirmed. At least one verdict rests on a figure or table, not on a statement of the authors.",
  "data": [
    {"sequence": "GGCCGCTCTAGAGATATCCCCGAGGGTCGAACCATGATGCCGGATCCCCTTTGTTATGCATCTGCCGAGGCCGCTCAATTGGTCGTAGACAGCTCTAGCACCGCTTAAACGCACGTACGCGCTGTCCCCCGCGTTTTAACCGCCAAGGGGATTACTCCCTAGTCTCCAGGCACGTGTCACATATATACATCCTGTTCCAGTGCCGGTGTCGCTTGGGTCCCGAGGATATCAAG (double strand) [233-bp 601 DNA with Sox2 motif]", "values": [
      {"measurement": "binding result", "value": "binds"}
    ]}
  ]
}
